Experimental data reported in PubChem BioAssay AID328 (DTP/NCI, 2004).
The list shows only some results of the screen, not a fair sample: it gathers tests that were run many times, whatever their T/C, doses with no T/C, and many T/C values between a quarter and a half above the control. Other doses and runs of a compound stand elsewhere. T/C is the treated group as % of the vehicle group. Some entries give survivors of the animals treated and no T/C: the source holds a T/C of zero for them, seemingly a mark for toxic or unscored doses. Some doses without a T/C left all or most animals alive at the check, yet need not have been tolerated: the source hardly ever lists a survival T/C far under the control, and the zero likely stands for such cases as well. Survivors were counted at the toxicity check, usually on the fifth day, unless a day is given; later deaths do not show. Schedules are NCI's codes, read here as Q, the interval in days (D) or hours (H), X, the number of doses. Some schedules carry Z or #; the key to these is not given. Where survival is the endpoint, this PubChem deposit counts one and a half times the control or more as active, and values a quarter to a half above the control carry no call in these data; other NCI protocols may use other cut-offs. Some entries hold several experiments; the values are given in rising order. Some T/C values carry the count of animals alive at the toxicity check (mostly the fifth day); where none is given, no animal had died by that day.

Tested on: BDF1 mice, P388 leukemia ip, median survival T/C
Test: NCI In Vivo Anticancer Drug Screen. Data for tumor model P388 Leukemia (intraperitoneal) in B6D2F1 (BDF1) mice
Conditions: T/C endpoint: median survival time, higher T/C = longer survival
Method in brief: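 Vehicle-dosed animals serve as the reference; survival of compound-dosed, tumour-implanted mice is divided by it.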

[1] = dose: 100.0 mg/kg/injection, schedule: Q01DX009 (ip), vehicle: Klucel (hydroxypropylcellulose) (HPC)
[2] = dose: 200.0 mg/kg/injection, schedule: Q01DX009 (ip), vehicle: Klucel (hydroxypropylcellulose) (HPC)
[3] = dose: 200.0 mg/kg/injection, schedule: Q01DX001 (ip), vehicle: saline with Tween-80
[4] = dose: 400.0 mg/kg/injection, schedule: Q01DX001 (ip), vehicle: saline with Tween-80
[5] = dose: 400.0 mg/kg/injection, schedule: Q04DX003 (ip), vehicle: saline with Tween-80
[6] = dose: 25.0 mg/kg/injection, schedule: Q01DX009 (ip), vehicle: Klucel (hydroxypropylcellulose) (HPC)
[7] = dose: 200.0 mg/kg/injection, schedule: Q04DX003 (ip), vehicle: saline with Tween-80
[8] = dose: 25.0 mg/kg/injection, schedule: Q01DX009 (ip), vehicle: saline
[9] = dose: 400.0 mg/kg/injection, schedule: Q04DX003 (ip), vehicle: Klucel (hydroxypropylcellulose) (HPC)

c1ccc(OCCC[P+](c2ccccc2)(c2ccccc2)c2ccccc2)cc1
T/C (dose: 6.25 mg/kg/injection, schedule: Q01DX010 (ip), vehicle: carboxymethylcellulose (CMC)): 130 % of control [5 of 6 alive]
T/C (dose: 6.25 mg/kg/injection, schedule: Q01DX010 (ip), vehicle: steroid suspending solution): 140 % of control
T/C (dose: 12.5 mg/kg/injection, schedule: Q01DX010 (ip), vehicle: steroid suspending solution): 130 % of control
survivor count (dose: 25.0 mg/kg/injection, schedule: Q01DX010 (ip), vehicle: carboxymethylcellulose (CMC)): 2 of 6
survivor count (dose: 25.0 mg/kg/injection, schedule: Q01DX010 (ip), vehicle: steroid suspending solution): 3 of 6
survivor count (dose: 50.0 mg/kg/injection, schedule: Q01DX010 (ip), vehicle: carboxymethylcellulose (CMC)): 0 of 6
survivor count (dose: 50.0 mg/kg/injection, schedule: Q01DX010 (ip), vehicle: steroid suspending solution): 1 of 6

O=C1/C(=C/c2cccc([N+](=O)[O-])c2)CCc2ccccc21
survivor count [1]: 6 of 6
survivor count [2]: 6 of 6

COC1=C(OC)C(=O)C2=C(OCCO2)C1=O
survivor count [3]: 0 of 6
survivor count [4]: 0 of 6

CN(C(=N)N)c1ccc(C(=O)Oc2ccc([N+](=O)[O-])cc2)cc1
T/C (dose: 37.5 mg/kg/injection, schedule: Q04DX003 (ip), vehicle: water): 125 % of control

CCCCN(C)N=Nc1ccc(CCC(=O)OCC)cc1
T/C (dose: 100.0 mg/kg/injection, schedule: Q04DX003 (ip), vehicle: saline with Tween-80): 136 % of control
T/C (dose: 266.0 mg/kg/injection, schedule: Q04DX003 (ip), vehicle: saline with Tween-80): 134 and 136 % of control
T/C [5]: 146 % of control
survivor count (dose: 600.0 mg/kg/injection, schedule: Q04DX003 (ip), vehicle: saline with Tween-80): 6 of 6

NN(C(=O)c1ccccc1)c1ccccc1
survivor count [1]: 4 of 6

Cc1cc(O)c2c(c1)OC1(C)CCC3C(C)(C)CCCC34COC2C14 (centres undefined)
survivor count (dose: 100.0 mg/kg/injection, schedule: Q01DX009 (ip), vehicle: other): 3 of 3

O=C(O)c1c(-c2ccccc2)[nH]c2cc(Cl)ccc2c1=O
survivor count [6]: 6 of 6
T/C [1]: 127 % of control [5 of 6 alive]
survivor count [2]: 3 of 6
T/C [7]: 131 % of control
survivor count (dose: 300.0 mg/kg/injection, schedule: Q04DX003 (ip), vehicle: saline with Tween-80): 3 of 6
survivor count (dose: 400.0 mg/kg/injection, schedule: Q01DX009 (ip), vehicle: Klucel (hydroxypropylcellulose) (HPC)): 0 of 6

C(#CCN1CCCC1)CCCN1CCCC1
survivor count [7]: 0 of 6

Cc1cc(O)c(C(c2ccc(N(C)C)cc2Cl)c2c(O)cc(C)[nH]c2=O)c(=O)[nH]1
survivor count (dose: 200.0 mg/kg/injection, schedule: Q01DX009 (ip), vehicle: saline with Tween-80): 4 of 6

Nc1nc(Cc2ccccc2)c(CCCNc2ccccc2)c(=O)[nH]1
survivor count (dose: 12.5 mg/kg/injection, schedule: Q01DX009 (ip), vehicle: saline with Tween-80): 6 of 6

CCOC(=O)CN1CCC2CC1c1c([nH]c3ccccc13)C21OCCO1 (centres undefined)
survivor count (dose: 4.0 mg/kg/injection, schedule: Q01DX009 (ip), vehicle: saline): 6 of 6
survivor count [8]: 6 of 6
survivor count (dose: 50.0 mg/kg/injection, schedule: Q01DX009 (ip), vehicle: saline): 6 of 6
survivor count (dose: 100.0 mg/kg/injection, schedule: Q01DX009 (ip), vehicle: saline): 6 of 6

[NH-]C(CCC(N)=O)C(=O)O.[NH-]C(CCCN=C(N)N)C(=O)O.[Zn+2] (centres undefined)
survivor count (dose: 200.0 mg/kg/injection, schedule: Q01DX005 (ip), vehicle: saline): 1 of 5

CCCC(=O)Nc1ccc(NS(C)(=O)=O)cc1OC
survivor count [9]: 0 of 6

CC1CN1P(=S)(Oc1ccccc1)N1CC1C (centres undefined)
T/C (dose: 132.0 mg/kg/injection, schedule: Q01DX009 (ip), vehicle: saline with Tween-80): 125 % of control
survivor count (dose: 600.0 mg/kg/injection, schedule: Q01DX009 (ip), vehicle: saline with Tween-80): 1 of 6

CN(N=O)C(=O)NC(N)=O
T/C (dose: 7.0 mg/kg/injection, schedule: Q01DX009 (ip), vehicle: Klucel (hydroxypropylcellulose) (HPC)): 136 % of control
T/C (dose: 8.2 mg/kg/injection, schedule: Q01DX009 (ip), vehicle: saline): 147 % of control
T/C (dose: 11.0 mg/kg/injection, schedule: Q01DX009 (ip), vehicle: Klucel (hydroxypropylcellulose) (HPC)): 136 % of control
T/C [6]: 127 % of control
T/C [8]: 148 % of control
T/C (dose: 25.0 mg/kg/injection, schedule: Q04DX003 (ip), vehicle: Klucel (hydroxypropylcellulose) (HPC)): 145 % of control
T/C (dose: 33.0 mg/kg/injection, schedule: Q04DX003 (ip), vehicle: Klucel (hydroxypropylcellulose) (HPC)): 131 % of control
survivor count (dose: 50.0 mg/kg/injection, schedule: Q01DX009 (ip), vehicle: Klucel (hydroxypropylcellulose) (HPC)): 6 of 6
survivor count (dose: 100.0 mg/kg/injection, schedule: Q04DX003 (ip), vehicle: Klucel (hydroxypropylcellulose) (HPC)): 6 of 6
survivor count (dose: 200.0 mg/kg/injection, schedule: Q04DX003 (ip), vehicle: Klucel (hydroxypropylcellulose) (HPC)): 4 of 6
survivor count [9]: 1 of 6

CCCCCCCCC(=O)N1CCOCC1
survivor count (dose: 9.37 mg/kg/injection, schedule: Q01DX009 (ip), vehicle: saline): 6 of 6
survivor count (dose: 18.75 mg/kg/injection, schedule: Q01DX009 (ip), vehicle: saline): 6 of 6
survivor count (dose: 37.5 mg/kg/injection, schedule: Q01DX009 (ip), vehicle: saline): 6 of 6

C(=Nc1ccc(/C=C\c2ccnc3ccccc23)cc1)Nc1ccc(/C=C\c2ccnc3ccccc23)cc1
survivor count (dose: 50.0 mg/kg/injection, schedule: Q01DX009 (ip), vehicle: saline with Tween-80): 5 of 6
survivor count (dose: 100.0 mg/kg/injection, schedule: Q01DX009 (ip), vehicle: saline with Tween-80): 6 of 6

Cc1cccc2c(Nc3ccc(NS(C)(=O)=O)cc3)c3ccccc3nc12
T/C (dose: 1.33 mg/kg/injection, schedule: Q01DX009 (ip), vehicle: saline with Tween-80): 130 % of control
T/C (dose: 2.0 mg/kg/injection, schedule: Q01DX009 (ip), vehicle: saline with Tween-80): 145 % of control
T/C (dose: 4.4 mg/kg/injection, schedule: Q04DX003 (ip), vehicle: saline with Tween-80): 131 % of control
T/C (dose: 6.6 mg/kg/injection, schedule: Q04DX003 (ip), vehicle: saline with Tween-80): 140 % of control
T/C (dose: 8.8 mg/kg/injection, schedule: Q04DX003 (ip), vehicle: saline with Tween-80): 136 % of control
T/C (dose: 10.0 mg/kg/injection, schedule: Q04DX003 (ip), vehicle: saline with Tween-80): 136 % of control
T/C (dose: 13.2 mg/kg/injection, schedule: Q04DX003 (ip), vehicle: saline with Tween-80): 145 % of control
survivor count (dose: 40.0 mg/kg/injection, schedule: Q01DX009 (ip), vehicle: saline with Tween-80): 6 of 6
survivor count [5]: 5 of 6

CCCCn1c2nc(=O)[nH]c(=O)c-2[n+]([O-])c2ccccc21
survivor count [3]: 0 of 6
survivor count [4]: 0 of 6

CC1CCCCN1CC(Cl)Cl (centres undefined)
survivor count (dose: 200.0 mg/kg/injection, schedule: Q01DX009 (ip), vehicle: saline): 2 of 5

CCCCCCCCC(O)CCC (centres undefined)
survivor count (dose: 400.0 mg/kg/injection, schedule: Q01DX009 (ip), vehicle: saline): 6 of 6

Nc1ccccc1-c1ccccc1N
survivor count [9]: 2 of 6

O=C1CC2OCC=C3CN4CCC56c7ccccc7N1C5C2C3CC46 (centres undefined) (tested in a mixture with another compound)
survivor count (dose: 2.0 mg/kg/injection, schedule: Q04DX003 (ip), vehicle: saline + alcohol): 1 of 6

CCC(=O)OC1CC2C3CCC4=CC(=O)CCC4(C)C3CCC2(C)C1OC(=O)CC (centres undefined)
survivor count [1]: 6 of 6
survivor count [2]: 6 of 6

C=C(C)C12OC3(c4ccccc4)OC1C1C4OC4(CO)C(O)C4(O)C(=O)C(C)=CC4C1(O3)C(C)C2OC(=O)/C=C/c1ccccc1 (centres undefined)
survivor count (dose: 400.0 micrograms/kg/injection, schedule: Q## X009 (ip), vehicle: saline + alcohol): 6 of 6
